Test results as given in the supplement of paper PMC10849652.
Some of the results follow.

Amino acid sequences for entries named in this document (tags omitted). A change or cut given only in a name is not applied to a line headed by its entry.
UniProt Q9Y230, whole entry, looked up: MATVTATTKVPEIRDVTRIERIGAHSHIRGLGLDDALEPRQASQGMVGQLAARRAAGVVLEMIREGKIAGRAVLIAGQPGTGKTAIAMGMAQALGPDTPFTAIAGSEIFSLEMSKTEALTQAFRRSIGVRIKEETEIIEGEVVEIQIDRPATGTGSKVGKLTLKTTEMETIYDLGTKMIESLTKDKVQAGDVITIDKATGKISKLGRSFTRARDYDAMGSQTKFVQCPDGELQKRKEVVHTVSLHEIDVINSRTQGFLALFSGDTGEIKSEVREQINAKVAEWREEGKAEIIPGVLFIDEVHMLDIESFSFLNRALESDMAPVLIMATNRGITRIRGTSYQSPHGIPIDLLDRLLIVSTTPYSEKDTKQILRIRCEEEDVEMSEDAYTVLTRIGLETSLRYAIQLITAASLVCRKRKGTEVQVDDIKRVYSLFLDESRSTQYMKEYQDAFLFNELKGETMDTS
UniProt Q9BY42: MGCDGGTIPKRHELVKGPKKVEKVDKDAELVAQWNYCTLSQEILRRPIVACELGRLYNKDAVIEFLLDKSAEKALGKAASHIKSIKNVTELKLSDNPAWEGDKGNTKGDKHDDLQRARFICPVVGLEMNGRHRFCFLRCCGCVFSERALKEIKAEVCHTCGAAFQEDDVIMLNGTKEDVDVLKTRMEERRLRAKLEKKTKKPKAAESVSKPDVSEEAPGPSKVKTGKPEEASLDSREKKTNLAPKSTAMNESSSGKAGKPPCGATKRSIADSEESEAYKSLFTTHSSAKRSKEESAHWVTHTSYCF
UniProt Q5PRF9: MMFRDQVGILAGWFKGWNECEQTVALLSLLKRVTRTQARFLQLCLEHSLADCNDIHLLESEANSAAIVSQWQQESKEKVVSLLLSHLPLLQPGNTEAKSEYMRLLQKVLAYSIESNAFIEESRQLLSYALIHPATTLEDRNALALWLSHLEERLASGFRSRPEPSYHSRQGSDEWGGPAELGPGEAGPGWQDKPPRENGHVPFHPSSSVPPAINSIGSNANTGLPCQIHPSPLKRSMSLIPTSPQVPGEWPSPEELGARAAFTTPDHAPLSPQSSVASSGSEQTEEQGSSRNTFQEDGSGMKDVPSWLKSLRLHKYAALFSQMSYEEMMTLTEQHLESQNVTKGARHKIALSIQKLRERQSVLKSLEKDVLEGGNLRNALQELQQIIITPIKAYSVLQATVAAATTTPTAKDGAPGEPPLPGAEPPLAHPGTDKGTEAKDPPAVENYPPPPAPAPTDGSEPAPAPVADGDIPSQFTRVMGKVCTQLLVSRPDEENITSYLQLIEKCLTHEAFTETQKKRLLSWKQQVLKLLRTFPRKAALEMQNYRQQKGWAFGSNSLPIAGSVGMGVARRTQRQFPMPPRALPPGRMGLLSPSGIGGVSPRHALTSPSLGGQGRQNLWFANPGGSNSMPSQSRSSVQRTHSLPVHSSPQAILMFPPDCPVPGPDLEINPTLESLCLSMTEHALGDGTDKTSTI
UniProt Q9HB40: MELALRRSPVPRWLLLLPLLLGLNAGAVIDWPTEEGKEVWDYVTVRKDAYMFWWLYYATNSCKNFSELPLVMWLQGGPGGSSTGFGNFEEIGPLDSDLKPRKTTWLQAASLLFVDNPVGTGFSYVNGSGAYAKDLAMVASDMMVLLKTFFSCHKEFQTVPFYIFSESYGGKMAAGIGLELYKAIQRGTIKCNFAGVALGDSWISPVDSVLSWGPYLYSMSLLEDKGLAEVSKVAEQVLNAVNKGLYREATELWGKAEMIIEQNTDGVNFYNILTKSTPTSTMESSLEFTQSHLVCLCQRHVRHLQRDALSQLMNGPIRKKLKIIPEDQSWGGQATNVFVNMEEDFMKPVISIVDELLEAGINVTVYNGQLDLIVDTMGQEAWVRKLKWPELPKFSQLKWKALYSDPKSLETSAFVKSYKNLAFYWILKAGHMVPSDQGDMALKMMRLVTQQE
UniProt O75446: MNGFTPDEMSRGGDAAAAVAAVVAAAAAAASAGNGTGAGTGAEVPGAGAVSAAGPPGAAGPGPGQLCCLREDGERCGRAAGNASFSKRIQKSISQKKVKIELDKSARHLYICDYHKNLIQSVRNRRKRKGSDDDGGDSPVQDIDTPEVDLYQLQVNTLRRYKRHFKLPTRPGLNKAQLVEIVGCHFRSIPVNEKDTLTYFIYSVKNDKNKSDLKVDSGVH
UniProt Q96DX4: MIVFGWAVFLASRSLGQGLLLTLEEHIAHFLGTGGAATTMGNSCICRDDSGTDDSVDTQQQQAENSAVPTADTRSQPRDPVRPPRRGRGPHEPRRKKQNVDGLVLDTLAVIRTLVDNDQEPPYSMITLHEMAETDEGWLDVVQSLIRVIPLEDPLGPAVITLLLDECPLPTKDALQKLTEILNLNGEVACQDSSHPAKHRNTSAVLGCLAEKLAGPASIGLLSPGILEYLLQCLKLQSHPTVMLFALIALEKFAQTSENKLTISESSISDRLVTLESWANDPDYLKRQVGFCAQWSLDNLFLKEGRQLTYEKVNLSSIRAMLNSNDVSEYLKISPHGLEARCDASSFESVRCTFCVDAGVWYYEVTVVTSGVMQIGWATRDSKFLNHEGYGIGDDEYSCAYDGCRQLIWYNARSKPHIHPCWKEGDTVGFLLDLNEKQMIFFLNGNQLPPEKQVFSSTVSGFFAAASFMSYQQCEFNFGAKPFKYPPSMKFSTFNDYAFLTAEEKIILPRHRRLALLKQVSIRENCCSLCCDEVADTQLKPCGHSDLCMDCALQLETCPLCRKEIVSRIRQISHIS
UniProt Q15050: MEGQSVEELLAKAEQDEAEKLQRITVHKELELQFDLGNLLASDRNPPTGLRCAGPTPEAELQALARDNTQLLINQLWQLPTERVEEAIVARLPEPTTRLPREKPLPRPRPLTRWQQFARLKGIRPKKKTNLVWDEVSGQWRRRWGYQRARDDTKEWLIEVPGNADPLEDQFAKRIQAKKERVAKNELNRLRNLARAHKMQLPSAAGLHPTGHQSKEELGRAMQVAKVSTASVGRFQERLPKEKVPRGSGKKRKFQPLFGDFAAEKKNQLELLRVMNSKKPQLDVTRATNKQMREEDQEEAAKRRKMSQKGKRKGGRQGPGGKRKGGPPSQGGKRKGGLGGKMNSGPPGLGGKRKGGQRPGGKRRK
UniProt Q8N488: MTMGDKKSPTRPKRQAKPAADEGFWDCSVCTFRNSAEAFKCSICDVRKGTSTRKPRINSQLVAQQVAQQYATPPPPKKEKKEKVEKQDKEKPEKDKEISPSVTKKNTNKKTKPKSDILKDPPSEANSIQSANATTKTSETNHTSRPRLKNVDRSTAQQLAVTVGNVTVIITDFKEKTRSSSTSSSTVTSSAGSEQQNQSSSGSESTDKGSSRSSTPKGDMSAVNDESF
UniProt Q96IZ7: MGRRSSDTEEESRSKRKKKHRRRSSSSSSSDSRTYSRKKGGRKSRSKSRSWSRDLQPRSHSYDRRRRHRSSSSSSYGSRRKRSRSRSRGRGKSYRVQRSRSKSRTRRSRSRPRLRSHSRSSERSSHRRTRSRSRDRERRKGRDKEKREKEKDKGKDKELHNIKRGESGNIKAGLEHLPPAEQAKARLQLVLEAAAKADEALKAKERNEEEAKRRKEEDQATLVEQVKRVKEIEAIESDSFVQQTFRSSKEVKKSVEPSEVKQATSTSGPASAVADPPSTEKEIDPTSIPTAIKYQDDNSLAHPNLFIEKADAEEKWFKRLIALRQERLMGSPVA
UniProt O95486: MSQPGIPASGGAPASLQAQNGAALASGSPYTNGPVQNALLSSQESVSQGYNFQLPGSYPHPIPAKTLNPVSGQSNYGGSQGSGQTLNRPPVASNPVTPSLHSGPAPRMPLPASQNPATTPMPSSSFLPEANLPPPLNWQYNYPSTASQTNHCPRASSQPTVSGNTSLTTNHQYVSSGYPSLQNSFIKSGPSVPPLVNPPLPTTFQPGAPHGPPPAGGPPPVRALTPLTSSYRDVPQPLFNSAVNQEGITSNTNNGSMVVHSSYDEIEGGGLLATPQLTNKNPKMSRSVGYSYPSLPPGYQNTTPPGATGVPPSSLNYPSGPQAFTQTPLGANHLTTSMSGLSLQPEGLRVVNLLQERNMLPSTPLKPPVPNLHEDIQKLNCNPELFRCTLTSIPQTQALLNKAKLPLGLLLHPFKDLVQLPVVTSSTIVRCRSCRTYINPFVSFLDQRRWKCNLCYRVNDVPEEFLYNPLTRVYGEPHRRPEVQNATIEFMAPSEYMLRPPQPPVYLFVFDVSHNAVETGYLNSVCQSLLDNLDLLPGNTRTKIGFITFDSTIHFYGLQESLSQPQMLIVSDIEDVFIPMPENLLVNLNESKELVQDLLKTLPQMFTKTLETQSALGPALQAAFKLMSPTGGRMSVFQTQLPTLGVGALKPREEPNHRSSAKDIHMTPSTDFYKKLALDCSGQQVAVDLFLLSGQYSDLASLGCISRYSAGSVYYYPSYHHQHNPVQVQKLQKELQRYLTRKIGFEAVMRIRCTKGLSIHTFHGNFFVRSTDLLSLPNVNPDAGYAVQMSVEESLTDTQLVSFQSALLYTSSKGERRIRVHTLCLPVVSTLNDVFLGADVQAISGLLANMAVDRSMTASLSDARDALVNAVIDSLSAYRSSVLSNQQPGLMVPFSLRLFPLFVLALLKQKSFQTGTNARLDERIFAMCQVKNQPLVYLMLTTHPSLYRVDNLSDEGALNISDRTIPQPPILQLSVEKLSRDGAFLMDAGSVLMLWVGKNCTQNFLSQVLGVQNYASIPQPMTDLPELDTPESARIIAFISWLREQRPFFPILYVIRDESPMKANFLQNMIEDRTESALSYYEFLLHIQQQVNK
UniProt Q9UHR5: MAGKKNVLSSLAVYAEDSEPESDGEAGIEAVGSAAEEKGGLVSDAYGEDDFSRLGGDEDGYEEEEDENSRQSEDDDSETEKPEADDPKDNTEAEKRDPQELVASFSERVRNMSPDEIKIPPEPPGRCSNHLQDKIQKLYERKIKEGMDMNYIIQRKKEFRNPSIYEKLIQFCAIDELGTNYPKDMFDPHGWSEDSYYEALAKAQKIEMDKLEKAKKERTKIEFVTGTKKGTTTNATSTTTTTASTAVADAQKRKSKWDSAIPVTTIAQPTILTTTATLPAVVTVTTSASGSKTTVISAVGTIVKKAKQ
UniProt Q9HCN8: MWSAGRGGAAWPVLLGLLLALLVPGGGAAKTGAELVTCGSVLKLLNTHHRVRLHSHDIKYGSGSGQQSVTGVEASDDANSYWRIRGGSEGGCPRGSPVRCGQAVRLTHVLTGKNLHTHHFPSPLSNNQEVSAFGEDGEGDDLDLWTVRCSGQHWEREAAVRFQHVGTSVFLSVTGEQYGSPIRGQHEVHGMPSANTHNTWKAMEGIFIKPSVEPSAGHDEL
UniProt Q96T51: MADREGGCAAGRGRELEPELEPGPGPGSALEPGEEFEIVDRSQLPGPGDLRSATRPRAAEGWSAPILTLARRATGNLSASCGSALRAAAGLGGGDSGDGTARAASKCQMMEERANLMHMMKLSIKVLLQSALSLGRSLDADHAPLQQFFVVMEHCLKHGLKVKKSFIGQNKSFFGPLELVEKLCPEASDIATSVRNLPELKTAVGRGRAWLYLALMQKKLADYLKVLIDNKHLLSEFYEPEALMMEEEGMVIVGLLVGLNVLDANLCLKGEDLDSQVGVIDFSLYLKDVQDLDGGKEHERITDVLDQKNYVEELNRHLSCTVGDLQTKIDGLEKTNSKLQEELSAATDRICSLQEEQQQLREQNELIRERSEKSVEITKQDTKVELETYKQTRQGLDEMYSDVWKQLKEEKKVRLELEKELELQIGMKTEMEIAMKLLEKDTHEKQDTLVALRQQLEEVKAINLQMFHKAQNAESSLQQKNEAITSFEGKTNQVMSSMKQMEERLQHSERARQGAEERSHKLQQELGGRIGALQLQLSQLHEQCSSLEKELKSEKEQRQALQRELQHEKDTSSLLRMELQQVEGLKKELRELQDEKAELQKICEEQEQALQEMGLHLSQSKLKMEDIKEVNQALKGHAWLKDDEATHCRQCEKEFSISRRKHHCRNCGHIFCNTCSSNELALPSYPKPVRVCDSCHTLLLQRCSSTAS
UniProt Q9NTJ5: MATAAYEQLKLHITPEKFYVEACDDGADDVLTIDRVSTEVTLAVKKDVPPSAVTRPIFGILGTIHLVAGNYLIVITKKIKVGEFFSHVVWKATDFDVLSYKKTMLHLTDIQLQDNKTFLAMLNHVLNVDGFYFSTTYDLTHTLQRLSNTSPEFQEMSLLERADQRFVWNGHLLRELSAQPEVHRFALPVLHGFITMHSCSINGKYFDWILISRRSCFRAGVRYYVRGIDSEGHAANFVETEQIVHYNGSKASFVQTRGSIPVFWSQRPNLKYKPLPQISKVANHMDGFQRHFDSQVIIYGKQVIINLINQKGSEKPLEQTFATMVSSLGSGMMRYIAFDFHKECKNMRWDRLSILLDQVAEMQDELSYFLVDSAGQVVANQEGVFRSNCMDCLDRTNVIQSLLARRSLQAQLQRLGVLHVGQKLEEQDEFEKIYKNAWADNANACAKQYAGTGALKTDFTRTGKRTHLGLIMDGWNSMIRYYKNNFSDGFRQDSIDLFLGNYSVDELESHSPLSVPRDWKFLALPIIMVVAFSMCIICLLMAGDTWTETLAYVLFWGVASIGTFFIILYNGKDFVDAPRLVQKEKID

Experiments:
Test in all cases: log2 fold change, soluble protein after heating vs DMSO (PISA); higher = thermal stabilisation; K562 cells, 10 uM, 30 min; active = over 0.2 and 3.5 SD of the protein, either way, in both replicates (recomputed)
[1] = compound: CS(=O)(=O)c1ccc(-c2cnc(N)c(C(=O)Nc3ccccc3)n2)cc1
Procedure, shortened: (§1)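 Soluble protein was quantified by TMTpro 16plex LC-MS/MS after channel sums were equalised. It was obtained as the supernatant after 21,000xg for 90 min from pooled aliquots of K562 cells (2×10^6 cells/mL, 10 μM compound, 30 min) heated for 3 min across 48°C-58°C and extracted in PBS with 0.5% NP-40 at 4°C. Thermal stability values are relative to control samples and come from duplicates. They are given as log2 fold changes.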

[2] = compound: C[C@@H](Oc1cc(-c2cnn(C3CCNCC3)c2)cnc1N)c1c(Cl)ccc(F)c1Cl [crizotinib]
Procedure, shortened: as §1

[3] = compound: C[C@@H]1COCCN1C2=NC(=NC(=C2)C3(CC3)S(=O)(=O)C)C4=C5C=CNC5=CC=C4
Procedure, shortened: as §1

[4] = compound: C[C@H](C1=CC=C(C=C1)C(=O)NC2=C3C=CNC3=NC=C2)N
Procedure, shortened: as §1

[5] = compound: C[C@H](Nc1ncnc2nc[nH]c12)c1cc2cccc(Cl)c2c(=O)n1-c1ccccc1 [duvelisib]
Procedure, shortened: as §1

[6] = compound: Cc1cc(Nc2cc(CN3CCOCC3)c3nc(C)c(Cc4ccc(Cl)cc4F)n3n2)n[nH]1 [gandotinib]
Procedure, shortened: as §1

[7] = compound: Cc1cc(Nc2cc(N3CCN(C)CC3)nc(Sc3ccc(NC(=O)C4CC4)cc3)n2)n[nH]1 [tozasertib]
Procedure, shortened: as §1

[8] = compound: Cc1cc(SCc2sc(-c3ccc(C(F)(F)F)cc3)nc2C)ccc1OCC(=O)O
Procedure, shortened: as §1

[9] = compound: Cc1ccc(-n2nc(C(C)(C)C)cc2NC(=O)Nc2ccc(OCCN3CCOCC3)c3ccccc23)cc1 [doramapimod]
Procedure, shortened: as §1

[10] = compound: Cc1ccc(C(=O)N(CCCN)[C@@H](c2nc3cc(Cl)ccc3c(=O)n2Cc2ccccc2)C(C)C)cc1 [ispinesib]
Procedure, shortened: as §1

Measured: log2 fold change

RUVBL2 (UniProt Q9Y230)
inactive: [1] 0.054 | [2] 0.119 | [3] -0.014 | [4] -0.019 | [5] 0.002 | [6] -0.03 | [7] 0.034 | [8] -0.042 | [9] 0.007 | [10] 0.138

RTF1 (UniProt Q92541)
inactive: [1] 0.026 | [2] 0.026 | [3] 0.091 | [4] -0.067 | [5] 0.064 | [6] -0.102 | [7] -0.015 | [8] 0.036 | [9] -0.034 | [10] 0.019

SDHA (UniProt P31040)
inactive: [1] -0.017 | [2] 0.021 | [3] -0.003 | [4] -0.077 | [5] 0 | [6] 0.019 | [7] -0.008 | [8] -0.013 | [9] -0.065 | [10] 0.004

RTF2 (UniProt Q9BY42)
inactive: [1] -0.005 | [2] 0.234 | [3] -0.061 | [4] -0.089 | [6] 0.104 | [8] -0.003 | [9] -0.083 | [10] 0.151

SDHAF2 (UniProt Q9NX18)
inactive: [1] -0.042 | [2] -0.183 | [3] 0.07 | [4] -0.111 | [6] 0.057 | [8] -0.125 | [9] -0.051 | [10] 0.006

SAMD4B (UniProt Q5PRF9)
active: [2] -0.527
inactive: [1] -0.102 | [3] -0.036 | [4] 0.009 | [6] -0.135 | [8] 0.029 | [9] 0.073 | [10] -0.082

SCCPDH (UniProt Q8NBX0)
inactive: [1] 0.074 | [2] 0.333 | [3] 0.058 | [4] -0.093 | [6] 0.313 | [8] 0.124 | [9] 0.007 | [10] 0.081

SCPEP1 (UniProt Q9HB40)
active: [2] -0.254
inactive: [1] -0.03 | [3] -0.041 | [4] -0.028 | [6] 0.127 | [8] 0.032 | [9] -0.032 | [10] -0.163

SAP30 (UniProt O75446)
inactive: [1] -0.087 | [2] 0.012 | [3] -0.047 | [4] 0.098 | [6] 0.162 | [8] 0.124 | [9] -0.088

RTN4IP1 (UniProt Q8WWV3)
inactive: [1] 0.015 | [2] -0.084 | [3] 0.064 | [4] -0.045 | [6] 0.117 | [8] 0.225 | [9] 0.041 | [10] -0.137

RSPRY1 (UniProt Q96DX4)
inactive: [1] -0.037 | [2] 0.11 | [3] 0.02 | [4] -0.006 | [6] 0.067 | [8] 0.012 | [9] 0.083 | [10] 0.033

RRS1 (UniProt Q15050)
inactive: [1] -0.022 | [2] 0 | [3] -0.365 | [4] 0.304 | [6] 0.089 | [8] -0.034 | [9] 0.235 | [10] 0.019

SDHB (UniProt P21912)
inactive: [1] 0.027 | [2] 0.045 | [3] 0.023 | [4] -0.029 | [5] -0.005 | [6] 0.013 | [7] -0.023 | [8] -0.062 | [9] -0.041 | [10] 0.009

SEC23A (UniProt Q15436)
inactive: [1] 0.001 | [2] -0.016 | [3] 0.061 | [4] -0.102 | [6] -0.109 | [8] 0.03 | [9] -0.092 | [10] 0.023

SAAL1 (UniProt Q96ER3)
inactive: [1] 0.013 | [2] -0.129 | [3] 0.047 | [4] 0.008 | [6] 0.022 | [8] 0.019 | [9] -0.006 | [10] -0.049

RYBP (UniProt Q8N488)
inactive: [1] 0.002 | [2] 0.077 | [3] -0.026 | [4] -0.019 | [5] -0.036 | [6] 0.123 | [7] -0.007 | [8] -0.13 | [9] -0.076 | [10] 0.049

SBNO1 (UniProt A3KN83)
inactive: [1] -0.003 | [2] 0.021 | [3] 0.039 | [4] -0.038 | [5] 0.011 | [6] 0 | [7] -0.016 | [8] 0.031 | [9] -0.046 | [10] 0.072

SAFB2 (UniProt Q14151)
inactive: [1] -0.079 | [2] -0.016 | [3] -0.316 | [4] 0.164 | [6] 0.184 | [8] 0.006 | [9] 0.089 | [10] -0.043

RSRC1 (UniProt Q96IZ7)
active: [4] -0.386
inactive: [1] 0.007 | [2] -0.059 | [3] 0.027 | [6] 0.176 | [8] -0.034 | [9] 0.051 | [10] 0.037

RTN2 (UniProt O75298)
inactive: [1] -0.091 | [2] -0.045 | [3] 0.189 | [4] -0.117 | [5] 0.121 | [7] 0.009 | [8] -0.077 | [9] 0.009 | [10] -0.09

SEC24A (UniProt O95486)
inactive: [1] 0.002 | [2] -0.001 | [3] 0.075 | [4] 0.001 | [6] -0.148 | [8] 0.084 | [9] -0.029 | [10] 0.017

SAP30BP (UniProt Q9UHR5)
inactive: [1] -0.017 | [2] 0.047 | [3] 0.042 | [4] -0.081 | [5] -0.025 | [6] 0 | [7] 0.019 | [8] -0.082 | [9] -0.022 | [10] 0.02

SCRN2 (UniProt Q96FV2)
inactive: [1] 0.197 | [2] 0.08 | [3] 0.076 | [4] 0.093 | [5] 0.109 | [6] -0.077 | [7] 0.043 | [8] 0.048 | [9] -0.093 | [10] -0.051

Quoted at random: 2 records from the list
RTN2 (UniProt O75298)
inactive: [1] -0.091 | [2] -0.045 | [3] 0.189 | [4] -0.117 | [5] 0.121 | [7] 0.009 | [8] -0.077 | [9] 0.009 | [10] -0.09

RSRC1 (UniProt Q96IZ7)
active: [4] -0.386
inactive: [1] 0.007 | [2] -0.059 | [3] 0.027 | [6] 0.176 | [8] -0.034 | [9] 0.051 | [10] 0.037

Additional records.

SDF2L1 (UniProt Q9HCN8)
inactive: [1] 0.033 | [2] 0.076 | [3] 0.057 | [4] 0.013 | [5] -0.031 | [6] 0.04 | [7] 0.026 | [8] 0.03 | [9] -0.007 | [10] -0.038

RTN3 isoform 5 (UniProt O95197)
inactive: [1] 0.037 | [2] 0.061 | [3] 0.443 | [4] -0.009 | [5] 0.291 | [7] 0.082 | [8] 0.086 | [9] -0.02 | [10] 0.068

RUFY1 (UniProt Q96T51)
inactive: [1] -0.04 | [2] -0.003 | [3] -0.034 | [4] 0.075 | [6] -0.029 | [8] 0.118 | [9] 0.032 | [10] -0.065

SACM1L (UniProt Q9NTJ5)
inactive: [1] 0.026 | [2] 0 | [3] 0.062 | [4] -0.094 | [6] -0.065 | [8] 0.005 | [9] -0.055 | [10] -0.096
